{
  "source": "patent US20260115162A1",
  "about": "“COMPOSITION OR ASSOCIATION OF COMPOUNDS PREFERABLY FOR USE IN THE TREATMENT OF NERVOUS DISEASES IN PARTICULAR NEURODEGENERATIVE DISEASES, METHOD FOR THE PREPARATION OF SUCH COMPOSITION OR ASSOCIATION OF COMPOUNDS AND USES THEREOF” (PHARMACEUTICA SAN MARCO S.R.L., priority 2022, published 2026)",
  "origin": "cited, not measured here",
  "test_system": "quinolinic acid induced by IL-1β",
  "conditions": "cited from earlier work",
  "note": "At least one structure is not confirmed: it was looked up by name or label, or the drawing left a doubt.",
  "data": [
    {"smiles": "CC/C=C\\C/C=C\\C/C=C\\C/C=C\\C/C=C\\C/C=C\\CCC(=O)O", "note": "[DHA, docosahexaenoic acid]", "values": [
      {"measurement": "reduction of the increase in quinolinic acid induced by IL-1β", "value": 78, "unit": "%"}
    ]},
    {"smiles": "CC/C=C\\C/C=C\\C/C=C\\C/C=C\\C/C=C\\CCCC(=O)O", "note": "[EPA, eicosapentaenoic acid, reference compound]", "values": [
      {"measurement": "reduction of the increase in quinolinic acid induced by IL-1β", "value": "ineffective"}
    ]}
  ]
}
